The results in this text go back to the supplement of paper PMC11732987, “Enantioselective OTUD7B fragment discovery through chemoproteomics screening and high-throughput optimisation” (Communications Chemistry, 2025).

Protein sequences, listed by entry. Tags and fused reporters are not part of them. Lines headed by an entry give the natural chain unless they say otherwise; changes in a name come on top.
UniProt Q9P1Y6: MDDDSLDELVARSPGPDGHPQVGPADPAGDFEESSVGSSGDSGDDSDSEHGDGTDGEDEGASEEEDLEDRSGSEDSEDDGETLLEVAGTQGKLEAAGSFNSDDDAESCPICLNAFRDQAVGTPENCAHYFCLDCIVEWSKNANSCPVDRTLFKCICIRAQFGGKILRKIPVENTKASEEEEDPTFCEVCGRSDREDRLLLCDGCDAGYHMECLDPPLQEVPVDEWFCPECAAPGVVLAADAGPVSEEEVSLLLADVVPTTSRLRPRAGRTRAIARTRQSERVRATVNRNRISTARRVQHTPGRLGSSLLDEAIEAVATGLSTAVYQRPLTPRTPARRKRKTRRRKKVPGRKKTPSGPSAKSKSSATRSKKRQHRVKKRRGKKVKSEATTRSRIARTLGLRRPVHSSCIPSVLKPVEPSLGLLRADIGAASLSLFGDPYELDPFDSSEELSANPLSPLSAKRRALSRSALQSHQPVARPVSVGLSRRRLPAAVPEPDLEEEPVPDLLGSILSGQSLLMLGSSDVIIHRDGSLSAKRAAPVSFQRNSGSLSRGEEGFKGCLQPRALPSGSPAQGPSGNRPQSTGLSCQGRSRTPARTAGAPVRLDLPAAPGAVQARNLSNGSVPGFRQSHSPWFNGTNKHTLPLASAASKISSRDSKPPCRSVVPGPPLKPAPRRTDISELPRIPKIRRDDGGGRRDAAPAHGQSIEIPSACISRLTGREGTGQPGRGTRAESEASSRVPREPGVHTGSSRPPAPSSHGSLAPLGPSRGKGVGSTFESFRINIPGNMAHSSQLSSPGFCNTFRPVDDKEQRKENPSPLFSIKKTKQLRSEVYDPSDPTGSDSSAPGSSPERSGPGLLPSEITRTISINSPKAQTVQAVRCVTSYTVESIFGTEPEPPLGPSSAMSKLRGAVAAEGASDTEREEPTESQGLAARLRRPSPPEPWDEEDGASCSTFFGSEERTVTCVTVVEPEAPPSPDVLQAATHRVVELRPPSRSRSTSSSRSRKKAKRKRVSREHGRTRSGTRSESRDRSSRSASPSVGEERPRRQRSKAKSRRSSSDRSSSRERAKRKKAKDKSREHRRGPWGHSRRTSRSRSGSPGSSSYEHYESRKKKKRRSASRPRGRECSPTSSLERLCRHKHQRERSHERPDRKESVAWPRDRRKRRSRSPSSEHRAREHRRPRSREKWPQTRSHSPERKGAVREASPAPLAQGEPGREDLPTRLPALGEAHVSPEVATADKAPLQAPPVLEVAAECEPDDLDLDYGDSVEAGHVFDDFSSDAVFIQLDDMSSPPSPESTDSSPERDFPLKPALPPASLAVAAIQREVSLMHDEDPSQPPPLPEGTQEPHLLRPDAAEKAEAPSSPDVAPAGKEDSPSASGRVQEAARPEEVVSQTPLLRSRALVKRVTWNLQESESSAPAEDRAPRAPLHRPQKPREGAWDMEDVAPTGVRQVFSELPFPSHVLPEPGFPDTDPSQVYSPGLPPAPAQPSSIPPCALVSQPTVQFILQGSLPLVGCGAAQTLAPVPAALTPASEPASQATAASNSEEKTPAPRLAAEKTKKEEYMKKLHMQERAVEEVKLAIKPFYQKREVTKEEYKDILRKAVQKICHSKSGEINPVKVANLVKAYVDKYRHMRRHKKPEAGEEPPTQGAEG

The list shows a part of the results. The data scatter; read single values as rough.

The first test concerns the target T1, PHRF1 C962 (UniProt Q9P1Y6).
T1 sequence (whole entry): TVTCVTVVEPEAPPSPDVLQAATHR
Put plainly: log2 mean competition ratio of IA-DTB cysteine labelling (DMSO/compound) (log2 ratio); higher = stronger cysteine engagement by compound. As to conditions: 50 µM; treatment time: 4 h; cell line lysate: HEK293T. The procedure: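 IA-DTB competitive cysteine chemoproteomics in HEK293T RIPA lysate. Lysates were treated with compound 29 or 30 at 50 or 200 µM for 4 h, then IA-DTB (500 µM, 1 h), trypsin-digested, NeutrAvidin-enriched and analysed by diaPASEF. Competition ratio = intensity DMSO / intensity compound (n=4 treated, n=64 DMSO); binding: mean log2 CR ≥ 1 and p ≤ 0.05 plus QC filters. Target is the cysteine site.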
With `O=C(CCl)N[C@@H]1CCCc2ccccc21`, the “log2 mean competition ratio” value is -0.0865.

In the case of `O=C(CCl)N[C@H]1CCCc2ccccc21`, the “log2 mean competition ratio” value amounted to 0.324.

The same test, now with this note: 200 µM; treatment time: 4 h; cell line lysate: HEK293T.
On to `O=C(CCl)N[C@@H]1CCCc2ccccc21`, for which the “log2 mean competition ratio” value stood at 0.757.

Regarding `O=C(CCl)N[C@H]1CCCc2ccccc21`, the “log2 mean competition ratio” value came to 0.0524.
